Assay results from PubChem BioAssay AID504467 (National Center for Advancing Translational Sciences (NCATS), 2011).
Among all 330,000 compounds or so, about 7,700 (2.3%) were called active. Inconclusive results, whose numbers are uncertain, are shown with a selection of clear calls. The call rests on the fitted dose curve; in most records, active means well fitted inhibition curve with a large enough effect; inconclusive means small, poorly fitted or top-dose-only effect, or effect the other way; inactive means flat fitted curve, though single readings scatter. Potencies beside an inconclusive call are fits to weak or partial responses and may not hold up.
On the % scale 0 is the no-effect control and ±100 the full control effect; potency means the concentration at half of the fitted maximal effect.

Test: qHTS screen for small molecules that inhibit ELG1-dependent DNA repair in human embryonic kidney (HEK293T) cells expressing luciferase-tagged ELG1; further: nearly all actives have a fitted effect of over 55% in size
Details: HEK293T ELG1-luciferase reporter, luminescence, 16 h, DNA damage induced by 5-fluorouridine; activity change, negative = inhibition: at 46.1 µM (top of the series)
Procedure, shortened: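 Quantitative HTS, concentration-response format. 2,000 cells/well co-treated with 5-fluorouridine and compound, 16 hr in 5% CO2 at 37 °C; ONE-Glo luminescence read after 30 min.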
For `Cc1ccccc1C(=O)OCC(=O)N(C)c1ccccc1`, the Potency was inconclusive: 20.6 µM [activator, partial curve].
With `O=C(/C=C/c1ccco1)NC(=S)N1CCCCC1` the Potency was inconclusive: 9.2 µM [activator, partial curve].
With `O=C1NN(c2ccccc2)C(=O)/C1=C\c1cccc(OC(=O)c2cccs2)c1` the Potency was inconclusive: 25.9 µM [activator, single point].
With `CCn1cnc2sc(C(=O)Oc3ccc(Br)cc3)c(C)c2c1=O` the “activity change, negative = inhibition” value was inactive: 16%.
In the case of `COc1ccc(NC(=O)c2cc(-c3ccccc3O)n[nH]2)cc1Cl`, the Potency is reported as inconclusive: 29.1 µM [activator, single point].
With `CC(=O)Nc1ccc(NC(=O)CSc2ccc(-c3ccc4c(c3)OCO4)nn2)cc1` the Potency was inconclusive: 16.4 µM [activator, partial curve].
With `C[C@H](CO)N1C[C@H](C)[C@@H](CN(C)C(=O)Nc2ccc(C(F)(F)F)cc2)Oc2c(NS(=O)(=O)c3ccc(F)cc3)cccc2C1=O` the Potency was inconclusive: 20.6 µM [activator, partial curve, poor fit].
For `COCCNC(=O)CCc1c(C)nc2c(c(C)nn2-c2ccc(C)cc2)c1C`, the “activity change, negative = inhibition” value was inactive: 0.833%.
For `COc1ccc(OC)c(C2=Nn3c(nnc3-c3cc(C)[nH]n3)SC2)c1`, the Potency was inconclusive: 14.6 µM [inhibitor, partial curve].
With `CN(C)c1ccccc1C(=O)N1CCCC(C(=O)c2ccc3ccccc3c2)C1` (configuration not stated) the Potency was inconclusive: 18.3 µM [inhibitor, single point].
In the case of `CC(C)(C)C1CCc2sc(C(=O)NNC(=O)CCl)cc2C1` (configuration not stated), the Potency is reported as inconclusive: 20.6 µM [activator, partial curve].
In the case of `COC(=O)c1sccc1NC(=O)CCC1CCCC1`, the Potency is reported as inconclusive: 25.9 µM [activator, partial curve, poor fit].
In the case of `C/C(=N/NC(=O)c1ccc2c(c1)OCO2)c1ccc(NC(=O)c2ccc(F)cc2)cc1`, the Potency is reported as inconclusive: 13 µM [activator, partial curve].
For `CN(CC(=O)Nc1ccccc1Cl)C(=O)COC(=O)c1ccc([N+](=O)[O-])s1`, the Potency was inconclusive: 25.9 µM [inhibitor, single point].
With `O=c1cc(CN2CCN(c3cccc(Cl)c3)CC2)c2cc(O)c(-c3ccccc3)cc2o1` the “activity change, negative = inhibition” value was inactive: -6.82%.
With `COc1ccc(NC(=O)CCN2C(=O)C3C4CCC(C4)C3C2=O)cc1` (configuration not stated) the Potency was inconclusive: 20.6 µM [activator, partial curve, poor fit].
In the case of `Cc1ccc2c(c1C)NC(=O)C2(O)CC(=O)c1ccc2c(c1)OCO2` (configuration not stated), the Potency is reported as inconclusive: 25.9 µM [activator, single point].
With `CSc1nc2ccccc2n1Cc1cccc(F)c1` the Potency was inconclusive: 13 µM [activator, partial curve].
For `Cc1ccc(Cn2c(=N)n(CC(O)COc3ccccc3)c3ccccc32)cc1` (configuration not stated), the Potency was inconclusive: 13 µM [inhibitor, partial curve, poor fit].
For `CCN(CCNCC(O)COCc1ccc(Cl)cc1)c1cccc(C)c1` (configuration not stated), the “activity change, negative = inhibition” value was inactive: 1.57%.
In the case of `Cc1ccc2c(c1)N(C(=O)CCC(=O)NCCCN1CCOCC1)CCO2`, the Potency is reported as inconclusive: 0.164 µM [inhibitor, full curve, poor fit].
For `Cc1cccc(N(C(=O)c2snc(C(N)=O)c2N)C(C(=O)NC2CCCC2)c2ccco2)c1` (configuration not stated), the Potency was inconclusive: 29.1 µM [inhibitor, single point].
In the case of `CCN(CC)S(=O)(=O)c1cc(NC(=O)CNc2cccc(S(=O)(=O)N3CCOCC3)c2)ccc1C`, the Potency is reported as inconclusive: 9.2 µM [inhibitor, single point].
In the case of `O=C(NCCC(=O)N(Cc1ccco1)Cc1cccs1)c1ccccc1Cl`, the Potency is reported as inconclusive: 23.1 µM [inhibitor, single point].
In the case of `CCCOc1ccc(C(=O)N2CCN(c3ccc(NC(=O)CC)cc3Cl)CC2)cc1`, the Potency is reported as inconclusive: 5.8 µM [inhibitor, single point].
For `CCC(C(=O)Nc1cc(OC)c(NC(=O)c2ccccc2)cc1OC)c1ccccc1` (configuration not stated), the Potency was inconclusive: 20.6 µM [inhibitor, partial curve, poor fit].
For `CC(c1cccs1)N(Cc1ccco1)C(=S)Nc1ccccc1Cl` (configuration not stated), the Potency was inconclusive: 20.6 µM [inhibitor, single point].
In the case of `COc1cccc(-c2cc(C(=O)Nc3ccncc3)c3ccccc3n2)c1`, the “activity change, negative = inhibition” value is reported as inactive: -10.9%.
With `COc1ccc(NC(=O)c2nc[nH]c2C(=O)N2CCN(c3ccccc3)CC2)cc1` the “activity change, negative = inhibition” value was inactive: -11.3%.
In the case of `COc1ccc(CCNC(=O)COc2ccc(S(=O)(=O)NC3CCCCC3)cc2Cl)cc1OC`, the Potency is reported as active: 20.6 µM.
For `COC(=O)c1cc(OC)c(OC)cc1NC(=O)CCc1ccc(C)o1`, the Potency was inconclusive: 29.1 µM [inhibitor, single point].
For `COc1ccccc1CNC(=O)C1CCN(C(=O)[C@@H]2Cc3ccccc3CN2)CC1`, the Potency was inconclusive: 8.2 µM [activator, partial curve, poor fit].
With `CCCCOc1ccc(C2C3CN(C(=O)OCC)CC=C3C(C#N)=C(N)C2(C#N)C#N)cc1OC` (configuration not stated) the Potency was inconclusive: 18.4 µM [inhibitor, single point].
In the case of `FCCCOc1ccc(-c2nccc(-c3ccc(Cl)cc3)n2)cc1`, the activity change, negative = inhibition is reported as inconclusive: 59.5% [activator].
For `CCC(C)n1c(=O)c(C(=O)Nc2ccccc2S(N)(=O)=O)c(O)c2ccccc21` (configuration not stated), the Potency was inconclusive: 20.6 µM [inhibitor, single point].
With `COc1ccc(NC(=O)COC(=O)CNC(=O)C2CCCCC2)cc1OC` the “activity change, negative = inhibition” value was inactive: 14.8%.
In the case of `O=C(/C=C/C(=O)N1CCc2ccccc2C1)N1CCc2ccccc2C1`, the “activity change, negative = inhibition” value is reported as inactive: -18.7%.
With `CC(C)(C)OC(=O)n1cc(CCO)c2ccccc21` the Potency was inconclusive: 16.4 µM [activator, single point].
For `O=C(COc1ccccc1)NCCSc1ccccc1`, the Potency was inconclusive: 20.6 µM [activator, partial curve].
In the case of `CCOC(=O)C1=C(C(C)=O)C(c2cccnc2)C(C#N)=C(N)O1` (configuration not stated), the “activity change, negative = inhibition” value is reported as inactive: 27.7%.
In the case of `C[C@H](CO)N1C[C@H](C)[C@@H](CN(C)CC2CCCCC2)Oc2ccc(NC(=O)CCN3CCOCC3)cc2C1=O`, the “activity change, negative = inhibition” value is reported as inactive: 8.68%.
In the case of `Cc1cc2nc(C)n(CCCNC(=O)Nc3cccc4ccccc34)c2cc1C`, the Potency is reported as inconclusive: 13 µM [inhibitor, partial curve].
For `COc1ccc(/C=C/C2=NN(C)C(=O)CC2)cc1`, the Potency was inconclusive: 18.3 µM [activator, partial curve].
In the case of `NNc1nc2cc3c(cc2s1)OCCO3`, the Potency is reported as inconclusive: 13 µM [activator, partial curve].
For `CCOc1ccc(NC(=O)COC(=O)Cn2cnc3ccccc32)cc1`, the Potency was inconclusive: 8.2 µM [activator, single point].
In the case of `c1ccc(CNc2nc3ccccc3n3cnnc23)nc1`, the Potency is reported as inconclusive: 18.4 µM [activator, single point].
With `O=C(COc1ccc(F)cc1)N1CCC(Cc2ccccc2)CC1` the “activity change, negative = inhibition” value was inactive: 12.6%.
With `Cc1c(NC2(C#N)CCCCC2)c(=O)n(-c2ccccc2)n1C` the “activity change, negative = inhibition” value was inactive: 0.714%.
With `Cc1ccc(C(C(=O)NCc2ccc(F)cc2)N(Cc2ccco2)C(=O)c2snc(C(N)=O)c2N)o1` (configuration not stated) the Potency was active: 20.6 µM.
With `Cn1c(N)c(C(=O)COC(=O)c2cc(-c3ccco3)nc3ccccc23)c(=O)n(C)c1=O` the Potency was active: 11.6 µM.
For `COc1ccc(C(=O)CSc2nc3ncccc3[nH]2)cc1OC`, the “activity change, negative = inhibition” value was inactive: -3.24%.
With `CCc1cc2c(=O)c(-c3ccon3)c(N)oc2cc1OC` the Potency was inconclusive: 2.91 µM [activator, full curve].
With `O=C(Cc1n[nH]c(=O)c2ccccc12)NC(c1ccccc1)c1ccccc1` the Potency was inconclusive: 29.1 µM [activator, single point].
In the case of `CCCC(=O)O[C@]1(C(=O)CO)CC[C@H]2[C@@H]3CCC4=CC(=O)CC[C@]4(C)[C@H]3[C@@H](O)C[C@@]21C`, the “activity change, negative = inhibition” value is reported as inactive: 26.2%.
With `Cc1c(CCC(=O)NC2CC2)c(=O)oc2c(C)c(O)ccc12` the “activity change, negative = inhibition” value was inactive: -3.65%.
For `COc1cc(CCC(=O)Nc2ccc(C)c(S(=O)(=O)N3CCCCCC3)c2)cc(OC)c1OC`, the Potency was inconclusive: 16.4 µM [inhibitor, partial curve].
In the case of `Nc1cc(C(=O)O)ccc1Nc1ccccc1`, the Potency is reported as inconclusive: 35.5 µM [activator, single point].
In the case of `CN1CCN(S(=O)(=O)c2ccc(Oc3cccc(C(F)(F)F)c3)nc2)CC1`, the Potency is reported as inconclusive: 3.66 µM [inhibitor, partial curve, poor fit].
For `COc1ccc(NC(=O)N2CCC(c3ccccc3)C2)c(OC)c1` (configuration not stated), the Potency was inconclusive: 18.4 µM [activator, partial curve, poor fit].
In the case of `COCCn1nnnc1SCC(=O)c1ccc(F)cc1`, the Potency is reported as inconclusive: 29.1 µM [activator, single point].
In the case of `O=C(NC(=S)Nc1ccc(F)cc1)C1CCCCC1`, the Potency is reported as inconclusive: 29.1 µM [activator, single point].
In the case of `COc1ccc(-n2cnnc2SCC(=O)N2CCN(S(=O)(=O)c3ccccc3)CC2)cc1`, the Potency is reported as inconclusive: 29.1 µM [inhibitor, partial curve, poor fit].
For `C/C(=N\NC(=O)CCC(=O)NCc1ccccc1)c1ccc([N+](=O)[O-])cc1`, the “activity change, negative = inhibition” value was inactive: -4.91%.
In the case of `CCCCCCCCC[n+]1cccc2c3ccccc3ccc21`, the Potency is reported as inconclusive: 1.84 µM [inhibitor, full curve, poor fit].
With `CCC(C)NC(=O)c1cn(-c2cccc(C)n2)cn1` (configuration not stated) the Potency was inconclusive: 20.6 µM [activator, partial curve].
In the case of `CCCOc1ccc(-c2nc(N)n[nH]2)cc1`, the Potency is reported as inconclusive: 20.6 µM [activator, single point].
With `Cc1cc2sc3ccccc3c(=O)c2c(C)c1O` the Potency was inconclusive: 23.1 µM [activator, single point].
